In article doi:10.1101/2021.03.09.434627:

Legend:
[1] = target: T1, His6-HSCA2-Myc (Arabidopsis) (UniProt Q9LDZ0); assay: pull-down
T1 sequence: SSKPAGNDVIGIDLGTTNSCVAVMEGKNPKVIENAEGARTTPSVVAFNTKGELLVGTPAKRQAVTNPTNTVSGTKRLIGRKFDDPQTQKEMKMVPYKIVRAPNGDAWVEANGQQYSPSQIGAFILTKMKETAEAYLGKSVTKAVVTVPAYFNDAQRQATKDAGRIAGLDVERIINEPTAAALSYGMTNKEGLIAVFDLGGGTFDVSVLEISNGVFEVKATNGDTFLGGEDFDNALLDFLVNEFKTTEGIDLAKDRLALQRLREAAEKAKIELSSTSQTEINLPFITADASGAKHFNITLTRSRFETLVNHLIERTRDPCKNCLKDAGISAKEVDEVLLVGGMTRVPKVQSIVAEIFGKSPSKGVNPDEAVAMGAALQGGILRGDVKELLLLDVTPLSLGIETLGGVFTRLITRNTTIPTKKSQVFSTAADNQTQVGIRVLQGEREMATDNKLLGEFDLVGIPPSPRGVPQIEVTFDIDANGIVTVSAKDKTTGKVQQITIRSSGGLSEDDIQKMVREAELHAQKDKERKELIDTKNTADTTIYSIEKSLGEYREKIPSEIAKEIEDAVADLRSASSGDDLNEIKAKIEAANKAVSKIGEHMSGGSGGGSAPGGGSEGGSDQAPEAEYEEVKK

[2] = target: T2, His6-HSCA2^G87D-Myc (Arabidopsis) (UniProt Q9LDZ0); assay: pull-down
T2 sequence: T1 sequence with G37D

SSR1-cCFP (Arabidopsis) = SSR1-cCFP (Arabidopsis) (UniProt Q9LZL9); assay: split reporter
SSR1-Flag (Arabidopsis) = assay: co-IP
[3] = target: His6-SSR1-Myc (Arabidopsis); assay: pull-down

Molecule: SSR1-Myc (Arabidopsis)
- binding [1]: binds
- binding [2]: binds

B2: ISU1-nVenus (protein, UniProt O49627 51-167)
chain: PNVGTGLVGAPACGDVMKLQIKVDEKTGQIVDARFKTFGCGSAIASSSVATEWVKGKAMEDVLTIKNTEIAKHLSLPPVKLHCSMLAEDAIKAAVKDYKEKRVKTNGAAAAGETTQA
- binding (SSR1-cCFP (Arabidopsis)): binds

B4: ISU1 (protein, UniProt O49627 51-167)
chain: B2 chain
- binding (SSR1-Flag (Arabidopsis)): binds

Next, values leading:

- binding (SSR1-cCFP (Arabidopsis)): binds
B1: HSCA2-nVenus (protein, UniProt Q9LDZ0 51-682)
chain: T1 sequence

- binding (SSR1-Flag (Arabidopsis)): binds
B3: HSCA2-Myc (protein, UniProt Q9LDZ0 51-682)
chain: T1 sequence

- binding [3]: binds
B5: ISU1-Myc (protein, UniProt O49627 51-167)
chain: B2 chain

- binding [3]: binds
B6: ISU1^T55M-Myc (protein, UniProt O49627 51-167)
chain: B2 chain with T5M

Substitutions are numbered along the chain they refer to. Names and notes keep the numbering of the source. No constants are given. Whether binding was seen depends on the method and setting. Binding seen in cells or lysates may run through a third protein. Binding can be weak; no strength is given. For some assays here: Sequences can lack the tags named with a protein. Each block holds one molecule with its values, some of them ahead of it.
